Laboratory results reported in US6670328.
Results are given in words; binding and its absence hold for the method and conditions named. For some assays here: Binding seen in cells or lysates may run through a third protein. Some binding calls cover weakened binding; strength is not graded here.

Sequences of proteins named here, by UniProt entry; tags and fusion partners are left off. A change or cut given only in a name is not applied to a line headed by its entry.
UniProt P20701: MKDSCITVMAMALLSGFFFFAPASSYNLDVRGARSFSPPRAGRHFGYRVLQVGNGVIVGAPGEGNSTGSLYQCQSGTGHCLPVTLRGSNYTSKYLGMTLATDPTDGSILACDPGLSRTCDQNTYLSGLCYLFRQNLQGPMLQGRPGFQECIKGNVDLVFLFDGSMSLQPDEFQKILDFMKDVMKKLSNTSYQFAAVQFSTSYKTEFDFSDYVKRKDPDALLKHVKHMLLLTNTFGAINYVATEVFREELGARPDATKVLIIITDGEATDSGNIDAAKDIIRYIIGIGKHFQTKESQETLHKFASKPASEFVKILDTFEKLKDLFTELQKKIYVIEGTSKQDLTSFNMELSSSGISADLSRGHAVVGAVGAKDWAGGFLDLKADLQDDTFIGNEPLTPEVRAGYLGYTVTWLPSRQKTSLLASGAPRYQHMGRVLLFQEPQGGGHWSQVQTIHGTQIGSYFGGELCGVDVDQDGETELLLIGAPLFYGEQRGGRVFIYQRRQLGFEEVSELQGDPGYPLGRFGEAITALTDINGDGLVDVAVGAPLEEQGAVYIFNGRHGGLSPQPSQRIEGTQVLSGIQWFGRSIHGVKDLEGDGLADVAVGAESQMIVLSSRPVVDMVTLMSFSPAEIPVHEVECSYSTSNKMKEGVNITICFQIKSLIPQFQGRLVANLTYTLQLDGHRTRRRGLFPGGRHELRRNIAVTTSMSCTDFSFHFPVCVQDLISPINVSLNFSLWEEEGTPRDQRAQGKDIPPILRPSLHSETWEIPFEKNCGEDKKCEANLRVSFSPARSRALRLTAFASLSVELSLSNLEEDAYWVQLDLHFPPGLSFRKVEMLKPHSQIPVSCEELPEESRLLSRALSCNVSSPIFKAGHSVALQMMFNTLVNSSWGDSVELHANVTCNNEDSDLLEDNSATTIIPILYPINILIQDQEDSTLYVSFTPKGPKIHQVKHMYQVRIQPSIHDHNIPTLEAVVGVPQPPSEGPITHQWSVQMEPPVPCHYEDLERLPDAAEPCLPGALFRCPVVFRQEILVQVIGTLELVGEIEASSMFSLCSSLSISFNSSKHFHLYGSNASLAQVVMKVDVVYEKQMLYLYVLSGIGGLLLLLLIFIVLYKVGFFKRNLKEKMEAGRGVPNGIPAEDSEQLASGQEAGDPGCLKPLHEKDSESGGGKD
UniProt P05107: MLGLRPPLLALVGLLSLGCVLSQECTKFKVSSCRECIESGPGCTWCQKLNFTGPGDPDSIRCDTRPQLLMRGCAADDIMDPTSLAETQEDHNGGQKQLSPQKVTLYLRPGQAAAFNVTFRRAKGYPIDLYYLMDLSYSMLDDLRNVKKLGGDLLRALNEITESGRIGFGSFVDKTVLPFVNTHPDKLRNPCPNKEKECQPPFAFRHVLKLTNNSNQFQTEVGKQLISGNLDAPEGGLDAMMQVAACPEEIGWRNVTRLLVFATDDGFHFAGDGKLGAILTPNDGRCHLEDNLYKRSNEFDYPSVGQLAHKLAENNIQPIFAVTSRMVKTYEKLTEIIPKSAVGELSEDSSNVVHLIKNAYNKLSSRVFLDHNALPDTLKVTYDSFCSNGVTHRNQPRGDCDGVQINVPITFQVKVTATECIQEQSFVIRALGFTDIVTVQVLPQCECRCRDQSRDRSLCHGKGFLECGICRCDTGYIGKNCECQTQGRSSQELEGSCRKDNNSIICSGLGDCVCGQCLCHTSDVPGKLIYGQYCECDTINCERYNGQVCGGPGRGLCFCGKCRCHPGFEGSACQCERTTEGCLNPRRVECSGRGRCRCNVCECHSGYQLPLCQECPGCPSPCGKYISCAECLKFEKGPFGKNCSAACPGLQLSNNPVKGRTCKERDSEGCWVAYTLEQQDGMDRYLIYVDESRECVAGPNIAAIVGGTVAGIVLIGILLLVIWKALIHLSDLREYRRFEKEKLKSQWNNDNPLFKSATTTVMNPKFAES

How the values were obtained:
[1] = biological target: T1, LFA-1 (heterodimeric CD11a/CD18) (human) (UniProt P20701+P05107); assay: resting Jurkat (and SIB-1) cells with ESM/WT for 1 h at 4 C, ESM-1 ELISA of lysates
[2] = biological target: T1, LFA-1 (heterodimeric CD11a/CD18) (human); assay: Jurkat cells with ESM-1 at 4 C or 37 C, ESM-1 ELISA of lysates
[3] = biological target: T1, LFA-1 (heterodimeric CD11a/CD18) (human); assay: co-immunoprecipitation and binding assay on Jurkat cells, ESM-1 ELISA
[4] = biological target: T1, LFA-1 (heterodimeric CD11a/CD18) (human); assay: BIAcore, ESM-1 at 100, 200 and 300 nM over LFA-1 captured by HI111
[5] = biological target: T1, LFA-1 (heterodimeric CD11a/CD18) (human); assay: flow cytometry on human PBMC and Jurkat cells; binding disappeared in 5 mM EDTA

Measured: binding

B1: secreted ESM-1 protein (Endothelial Cell Specific Molecule-1), purified wild-type form (ligand)
chain: WSNNYAVDCPQHCDSSECKSSPRCKRTVLDDCGCCRVCAAGRGETCYRTVSGMDGMKCGPCLRCQPSNCEDPFGEEFGICKDCPYGTFGMDCRETCNCQSCICDRGTGKCLKFPFFQYSVTKSSNRFVSLTEHDMASGDGNIVREEVVKENAAGSPVMRKWLNPR
binds: [1] | [2] | [3] | [4] | [5]
